{
  "source": "PubChem BioAssay AID200",
  "about": "(DTP/NCI, 2004)",
  "test_system": "B6C3F1 mice, B16 melanoma ip, median survival T/C",
  "test": "NCI In Vivo Anticancer Drug Screen. Data for tumor model B16 Melanoma (intraperitoneal) in B6C3F1 mice",
  "conditions": "T/C endpoint: median survival time, schedule: Q01DX009 (ip), higher T/C = longer survival",
  "experimental": "The antitumor activity of compounds was measured in mice bearing transplantable tumors. Survival or tumor size were measured and the results are expressed as the measurement made in the treated group (T) divided by the measurement made in the vehicle treated control group (C). The tumor model used in this assay is B16 Melanoma (intraperitoneal) in B6C3F1 mice",
  "key": {"[1]": {"conditions": "dose: 25.0 mg/kg/injection, vehicle: saline with Tween-80"}, "[2]": {"conditions": "dose: 50.0 mg/kg/injection, vehicle: saline with Tween-80"}, "[3]": {"conditions": "dose: 200.0 mg/kg/injection, vehicle: saline with Tween-80"}, "[4]": {"conditions": "dose: 400.0 mg/kg/injection, vehicle: saline with Tween-80"}, "[5]": {"conditions": "dose: 100.0 mg/kg/injection, vehicle: saline with Tween-80"}, "[6]": {"conditions": "dose: 12.5 mg/kg/injection, vehicle: saline with Tween-80"}, "[7]": {"conditions": "dose: 25.0 mg/kg/injection, vehicle: Klucel (hydroxypropylcellulose) (HPC)"}, "[8]": {"conditions": "dose: 50.0 mg/kg/injection, vehicle: Klucel (hydroxypropylcellulose) (HPC)"}, "[9]": {"conditions": "dose: 200.0 mg/kg/injection, vehicle: Klucel (hydroxypropylcellulose) (HPC)"}, "[10]": {"conditions": "dose: 400.0 mg/kg/injection, vehicle: Klucel (hydroxypropylcellulose) (HPC)"}, "[11]": {"conditions": "dose: 2.0 mg/kg/injection, vehicle: distilled water + Tween-80"}},
  "note": "The list does not hold the whole screen: it gathers tests that were run many times, whatever their T/C, doses with no T/C, and many T/C values between a quarter and a half above the control. Other doses and runs of a compound stand elsewhere. T/C is the treated group as % of the vehicle group. Some doses have a count of surviving animals in place of a T/C: the source files T/C as zero there, which appears to mark a toxic dose or a test without result, not a measured value. Some survivor counts are full or nearly so, which does not show that the dose was tolerated: the source hardly ever lists a survival T/C far under the control, and the zero likely stands for such cases as well. Survivors were counted at the toxicity check, usually on the fifth day, unless a day is given; later deaths do not show. Schedules are NCI's codes, read here as Q, the interval in days (D) or hours (H), X, the number of doses. Some entries were tested several times; the results are listed from low to high. For survival time, this PubChem deposit counts one and a half times the control or more as active, and values a quarter to a half above the control carry no call in these data; other NCI protocols may use other cut-offs. Some T/C values carry the count of animals alive at the toxicity check (mostly the fifth day); where none is given, no animal had died by that day.",
  "data": [
    {"smiles": "COc1cc(C2c3cc4c(cc3C(O)C(CO)C2CO)OCO4)cc(OC)c1OC", "note": "(centres undefined)", "values": [
      {"measurement": "T/C", "setting": "[1]", "result": "129 % of control"},
      {"measurement": "T/C", "setting": "[2]", "result": "131 % of control"},
      {"measurement": "survivor count", "setting": "[3]", "result": "10 of 10"},
      {"measurement": "survivor count", "setting": "[4]", "result": "5 of 8 and 10 of 10"}
    ]},
    {"smiles": "CC(C)N1C(=O)N(Cl)C2C1N(Cl)C(=O)N2Cl", "note": "(centres undefined)", "values": [
      {"measurement": "survivor count", "setting": "[1]", "result": "9 of 9"},
      {"measurement": "survivor count", "setting": "[2]", "result": "4 of 10"},
      {"measurement": "survivor count", "setting": "[5]", "result": "0 of 10"},
      {"measurement": "survivor count", "setting": "[3]", "result": "0 of 10"},
      {"measurement": "survivor count", "setting": "[4]", "result": "0 of 10"}
    ]},
    {"smiles": "CN(N=O)C(N)=O", "values": [
      {"measurement": "T/C", "setting": "dose: 3.0 mg/kg/injection, vehicle: saline", "result": "142 % of control"},
      {"measurement": "T/C", "setting": "dose: 6.0 mg/kg/injection, vehicle: saline", "result": "127 % of control"},
      {"measurement": "survivor count", "setting": "dose: 25.0 mg/kg/injection, vehicle: saline", "result": "8 of 8"},
      {"measurement": "survivor count", "setting": "dose: 50.0 mg/kg/injection, vehicle: saline", "result": "8 of 8"}
    ]},
    {"smiles": "O=C1c2cccc3cc([N+](=O)[O-])cc(c23)C(=O)N1CCN1CCCC1", "values": [
      {"measurement": "T/C", "setting": "dose: 3.12 mg/kg/injection, vehicle: saline with Tween-80", "result": "132 % of control"},
      {"measurement": "T/C", "setting": "dose: 3.13 mg/kg/injection, vehicle: saline with Tween-80", "result": "143 % of control"},
      {"measurement": "T/C", "setting": "dose: 6.25 mg/kg/injection, vehicle: saline with Tween-80", "result": "141 % of control"},
      {"measurement": "T/C", "setting": "[6]", "result": "136 % of control [9 of 10 alive]"},
      {"measurement": "survivor count", "setting": "[6]", "result": "9 of 10"},
      {"measurement": "survivor count", "setting": "[1]", "result": "7 of 10"},
      {"measurement": "survivor count", "setting": "[2]", "result": "4 of 10"}
    ]},
    {"smiles": "COC1=C(OC)C(=O)C(Sc2ccc3ccccc3c2)=CC1=O", "values": [
      {"measurement": "survivor count", "setting": "[1]", "result": "10 of 10"},
      {"measurement": "survivor count", "setting": "[2]", "result": "10 of 10"},
      {"measurement": "survivor count", "setting": "[5]", "result": "6 of 10 and 8 of 10"},
      {"measurement": "survivor count", "setting": "[3]", "result": "2 of 10"}
    ]},
    {"smiles": "CCOC(=O)Nc1cc2c(c(N)n1)N=C(c1ccccc1)CO2", "values": [
      {"measurement": "T/C", "setting": "dose: 172.8 mg/kg/injection, vehicle: saline with Tween-80", "result": "129 % of control"},
      {"measurement": "T/C", "setting": "[3]", "result": "142 and 145 % of control"},
      {"measurement": "T/C", "setting": "dose: 283.0 mg/kg/injection, vehicle: saline with Tween-80", "result": "129 % of control"}
    ]},
    {"smiles": "Nc1n[n+](-c2ccccc2)no1", "values": [
      {"measurement": "T/C", "setting": "dose: 25.0 mg/kg/injection, vehicle: water", "result": "136 % of control"},
      {"measurement": "survivor count", "setting": "dose: 50.0 mg/kg/injection, vehicle: water", "result": "10 of 10"},
      {"measurement": "survivor count", "setting": "dose: 100.0 mg/kg/injection, vehicle: water", "result": "0 of 10"}
    ]},
    {"smiles": "CN(C)CCN1C(=O)c2cccc3cc(N)cc(c23)C1=O", "values": [
      {"measurement": "T/C", "setting": "dose: 16.0 mg/kg/injection, vehicle: saline with Tween-80", "result": "137 and 139 % of control"},
      {"measurement": "survivor count", "setting": "dose: 32.0 mg/kg/injection, vehicle: acid diluted with saline", "result": "9 of 10"},
      {"measurement": "survivor count", "setting": "dose: 32.0 mg/kg/injection, vehicle: saline with Tween-80", "result": "10 of 10"}
    ]},
    {"smiles": "N#C[Se-].c1ccc([Te+](c2ccccc2)c2ccccc2)cc1", "values": [
      {"measurement": "survivor count", "setting": "[7]", "result": "0 of 10"},
      {"measurement": "survivor count", "setting": "[8]", "result": "0 of 10"}
    ]},
    {"smiles": "O=CN(SSN(C=O)C1CCCCC1)C1CCCCC1", "values": [
      {"measurement": "survivor count", "setting": "[4]", "result": "9 of 10"}
    ]},
    {"smiles": "O=Cc1ccc(O)c(O)c1", "values": [
      {"measurement": "survivor count", "setting": "[2]", "result": "10 of 10"},
      {"measurement": "survivor count", "setting": "dose: 200.0 mg/kg/injection, vehicle: water", "result": "10 of 10"},
      {"measurement": "survivor count", "setting": "dose: 400.0 mg/kg/injection, vehicle: water", "result": "8 of 10"}
    ]},
    {"smiles": "O=[N+]([O-])c1ccc2c3c(ccc([N+](=O)[O-])c13)CC2", "values": [
      {"measurement": "survivor count", "setting": "[9]", "result": "7 of 7"},
      {"measurement": "survivor count", "setting": "[10]", "result": "7 of 7"}
    ]},
    {"smiles": "O=C1CN(Cc2ccc3c(c2)OCO3)NO1", "values": [
      {"measurement": "survivor count", "setting": "[5]", "result": "9 of 10"},
      {"measurement": "survivor count", "setting": "[3]", "result": "9 of 10 and 10 of 10"}
    ]},
    {"smiles": "CNC(=O)O/N=C(\\CN=[N+]=[N-])C(C)(C)C", "values": [
      {"measurement": "survivor count", "setting": "dose: 2.0 mg/kg/injection, vehicle: saline", "result": "4 of 10"}
    ]},
    {"smiles": "CC(C)(C)C(=O)Oc1ccc(N=C(N)N)cc1", "values": [
      {"measurement": "survivor count", "setting": "dose: 200.0 mg/kg/injection, vehicle: saline", "result": "3 of 10"}
    ]},
    {"smiles": "CCC(C)C(NC(=O)OCC1c2ccccc2-c2ccccc21)C(=O)O", "note": "(centres undefined)", "values": [
      {"measurement": "survivor count", "setting": "[10]", "result": "1 of 10 and 7 of 10"}
    ]},
    {"smiles": "NC(N)=NC(N)=Nc1ccc(-c2ccc(N=C(N)N=C(N)N)cc2)cc1", "values": [
      {"measurement": "survivor count", "setting": "[1]", "result": "10 of 10"}
    ]},
    {"smiles": "CCCCNc1nc(N)nc(Nc2ccc(Br)cc2)c1N=O", "values": [
      {"measurement": "T/C", "setting": "[7]", "result": "132 % of control"}
    ]},
    {"smiles": "CNC=O", "values": [
      {"measurement": "survivor count", "setting": "dose: 800.0 mg/kg/injection, vehicle: saline", "result": "8 of 10"}
    ]},
    {"smiles": "CN(C)CCOc1ccc2c(c1)C/C(=C/c1ncc([N+](=O)[O-])n1C)C2=O", "values": [
      {"measurement": "survivor count", "setting": "[5]", "result": "10 of 10"},
      {"measurement": "survivor count", "setting": "[3]", "result": "10 of 10"}
    ]},
    {"smiles": "CC(C)=CC(=O)OC1C2C(C)=CC(=O)C(O)C2(C)C2C3(O)OCC24C(CC(=O)OC14)C(C)C3O", "note": "(centres undefined)", "values": [
      {"measurement": "T/C", "setting": "dose: 0.25 mg/kg/injection, vehicle: distilled water + Tween-80", "result": "138 % of control"},
      {"measurement": "T/C", "setting": "dose: 1.0 mg/kg/injection, vehicle: distilled water + Tween-80", "result": "120 [9 of 10 alive], 152, 164, 186 % of control"},
      {"measurement": "T/C", "setting": "[11]", "result": "162 [9 of 10 alive], 163 [9 of 10 alive], 166 % of control [9 of 10 alive]"},
      {"measurement": "survivor count", "setting": "[11]", "result": "9 of 10"},
      {"measurement": "survivor count", "setting": "dose: 4.0 mg/kg/injection, vehicle: distilled water + Tween-80", "result": "1 of 10 and 8 of 10"},
      {"measurement": "survivor count", "setting": "dose: 8.0 mg/kg/injection, vehicle: distilled water + Tween-80", "result": "0 of 10"}
    ]},
    {"smiles": "CC(C)(C)OC(=O)NC(CCCCNC(=O)C(F)(F)F)C(=O)O", "note": "(centres undefined)", "values": [
      {"measurement": "survivor count", "setting": "dose: 12.5 mg/kg/injection, vehicle: Klucel (hydroxypropylcellulose) (HPC)", "result": "10 of 10"},
      {"measurement": "survivor count", "setting": "[8]", "result": "10 of 10"},
      {"measurement": "survivor count", "setting": "dose: 100.0 mg/kg/injection, vehicle: Klucel (hydroxypropylcellulose) (HPC)", "result": "10 of 10"},
      {"measurement": "survivor count", "setting": "[9]", "result": "10 of 10"}
    ]},
    {"smiles": "CCO/C=C1\\SC(=S)N(c2ccccc2C)C1=O", "values": [
      {"measurement": "survivor count", "setting": "[4]", "result": "5 of 10 and 9 of 10"}
    ]},
    {"smiles": "O=C(Nc1nncs1)c1cccs1", "values": [
      {"measurement": "T/C", "setting": "[4]", "result": "127 % of control"},
      {"measurement": "survivor count", "setting": "[4]", "result": "10 of 10"}
    ]}
  ]
}
